# Measured values reported in the supplement of paper PMC8728848.
# The other results are listed elsewhere or left out.
# B1: Flo1 (Saccharomyces cerevisiae), P32768 (protein)
# chain: SGATEACLPAGQRKSGMNINFYQYSLKDSSTYSNAAYMAYGYASKTKLGSVGGQTDISIDYNIPCVSSSGTFPCPQEDSYGNWGCKGMGACSNSQGIAYWSTDLFGFYTTPTNVTLEMTGYFLPPQTGSYTFKFATVDDSAILSVGGATAFNCCAQQQPPITSTNFTIDGIKPWGGSLPPNIEGTVYMYAGYYYPMKVVYSNAVSWGTLPISVTLPDGTTVSDDFEGYVYSFDDDLSQSNCTVPDPSNY
# How the values were obtained:
# Assay in all cases: glycan array binding signal (z-score within array); higher = stronger binding
# Details in all cases: glycan notation: IUPAC condensed, linker removed
# [1] = target: Fuc(a1-2)Gal(b1-4)[Fuc(a1-3)]GlcNAc(b1-3)GalNAc
# Method in brief: (§1)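 Negative Z-scores can be read as non-binding. The Z-score is calculated within each array and then averaged across arrays of one protein sequence at different concentrations or buffers and across linkers. Arrays, 3228 in all, were curated from the Consortium for Functional Glycomics database and kept only where the protein sequence was available.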
# [2] = target: Fuc(a1-2)Gal(b1-4)[Fuc(a1-3)]GlcNAc(b1-3)[Neu5Ac(a2-6)Gal(b1-4)GlcNAc(b1-6)]Gal(b1-4)Glc
# Method in brief: as §1
# [3] = target: Fuc(a1-2)Gal3S(b1-4)GlcNAc
# Method in brief: as §1
# [4] = target: Fuc(a1-2)Gal6S(b1-3)GlcNAc
# Method in brief: as §1
# [5] = target: Fuc(a1-2)Gal6S(b1-3)GlcNAc6S
# Method in brief: as §1
# Fuc(a1-2)Gal6S(b1-4)Glc = target: Fuc(a1-2)Gal6S(b1-4)Glc
# Method in brief: as §1
# [6] = target: Fuc(a1-2)Gal6S(b1-4)Glc6S
# Method in brief: as §1
# [7] = target: Fuc(a1-2)Gal6S(b1-4)GlcNAc
# Method in brief: as §1
# Fuc(a1-2)[Gal(a1-3)]Gal = target: Fuc(a1-2)[Gal(a1-3)]Gal
# Method in brief: as §1
# [8] = target: Fuc(a1-2)[Gal(a1-3)]Gal(b1-3)GalNAc
# Method in brief: as §1
# [9] = target: Fuc(a1-2)[Gal(a1-3)]Gal(b1-3)GalNAc(b1-3)Gal(a1-4)Gal(b1-4)Glc
# Method in brief: as §1
# [10] = target: Fuc(a1-2)[Gal(a1-3)]Gal(b1-3)GlcNAc
# Method in brief: as §1
# [11] = target: Fuc(a1-2)[Gal(a1-3)]Gal(b1-3)GlcNAc(b1-2)Man(a1-3)[Fuc(a1-2)[Gal(a1-3)]Gal(b1-3)GlcNAc(b1-2)Man(a1-6)]Man(b1-4)GlcNAc(b1-4)GlcNAc
# Method in brief: as §1
# [12] = target: Fuc(a1-2)[Gal(a1-3)]Gal(b1-3)GlcNAc(b1-2)Man(a1-3)[Fuc(a1-2)[Gal(a1-3)]Gal(b1-3)GlcNAc(b1-2)Man(a1-6)]Man(b1-4)GlcNAc(b1-4)[Fuc(a1-6)]GlcNAc
# Method in brief: as §1
# [13] = target: Fuc(a1-2)[Gal(a1-3)]Gal(b1-3)GlcNAc(b1-3)GalNAc
# Method in brief: as §1
# [14] = target: Fuc(a1-2)[Gal(a1-3)]Gal(b1-3)GlcNAc(b1-6)GalNAc
# Method in brief: as §1
# [15] = target: Fuc(a1-2)[Gal(a1-3)]Gal(b1-4)Glc
# Method in brief: as §1
# [16] = target: Fuc(a1-2)[Gal(a1-3)]Gal(b1-4)GlcNAc
# Method in brief: as §1
# [17] = target: Fuc(a1-2)[Gal(a1-3)]Gal(b1-4)GlcNAc(b1-2)Man
# Method in brief: as §1
# [18] = target: Fuc(a1-2)[Gal(a1-3)]Gal(b1-4)GlcNAc(b1-2)Man(a1-3)[Fuc(a1-2)[Gal(a1-3)]Gal(b1-4)GlcNAc(b1-2)Man(a1-6)]Man(b1-4)GlcNAc(b1-4)GlcNAc
# Method in brief: as §1
# [19] = target: Fuc(a1-2)[Gal(a1-3)]Gal(b1-4)GlcNAc(b1-2)Man(a1-3)[Fuc(a1-2)[Gal(a1-3)]Gal(b1-4)GlcNAc(b1-2)Man(a1-6)]Man(b1-4)GlcNAc(b1-4)[Fuc(a1-6)]GlcNAc
# Method in brief: as §1
# [20] = target: Fuc(a1-2)[Gal(a1-3)]Gal(b1-4)GlcNAc(b1-3)GalNAc
# Method in brief: as §1
# [21] = target: Fuc(a1-2)[Gal(a1-3)]Gal(b1-4)GlcNAc(b1-3)[Fuc(a1-2)[Gal(a1-3)]Gal(b1-4)GlcNAc(b1-6)]GalNAc
# Method in brief: as §1
# [22] = target: Fuc(a1-2)[Gal(a1-3)]Gal(b1-4)GlcNAc(b1-6)GalNAc
# Method in brief: as §1
# [23] = target: Fuc(a1-2)[Gal(a1-3)]Gal(b1-4)[Fuc(a1-3)]Glc
# Method in brief: as §1
# [24] = target: Fuc(a1-2)[Gal(a1-3)]Gal(b1-4)[Fuc(a1-3)]GlcNAc
# Method in brief: as §1
# [25] = target: Fuc(a1-2)[Gal(a1-3)]Gal(b1-4)[Fuc(a1-3)]GlcNAc(b1-3)GalNAc
# Method in brief: as §1
# [26] = target: Fuc(a1-2)[Gal(a1-4)]Gal(b1-4)GlcNAc
# Method in brief: as §1
# [27] = target: Fuc(a1-2)[GalNAc(a1-3)]Gal
# Method in brief: as §1
# [28] = target: Fuc(a1-2)[GalNAc(a1-3)]Gal(b1-3)GalNAc(a1-3)[Fuc(a1-2)]Gal(b1-4)GlcNAc
# Method in brief: as §1
# [29] = target: Fuc(a1-2)[GalNAc(a1-3)]Gal(b1-3)GalNAc(b1-3)Gal(a1-4)Gal(b1-4)Glc
# Method in brief: as §1
# [30] = target: Fuc(a1-2)[GalNAc(a1-3)]Gal(b1-3)GlcNAc
# Method in brief: as §1
# [31] = target: Fuc(a1-2)[GalNAc(a1-3)]Gal(b1-3)GlcNAc(b1-2)Man(a1-3)[Fuc(a1-2)[GalNAc(a1-3)]Gal(b1-3)GlcNAc(b1-2)Man(a1-6)]Man(b1-4)GlcNAc(b1-4)GlcNAc
# Method in brief: as §1
# [32] = target: Fuc(a1-2)[GalNAc(a1-3)]Gal(b1-3)GlcNAc(b1-2)Man(a1-3)[Fuc(a1-2)[GalNAc(a1-3)]Gal(b1-3)GlcNAc(b1-2)Man(a1-6)]Man(b1-4)GlcNAc(b1-4)[Fuc(a1-6)]GlcNAc
# Method in brief: as §1
# [33] = target: Fuc(a1-2)[GalNAc(a1-3)]Gal(b1-3)GlcNAc(b1-3)GalNAc
# Method in brief: as §1
# [34] = target: Fuc(a1-2)[GalNAc(a1-3)]Gal(b1-3)GlcNAc(b1-6)GalNAc
# Method in brief: as §1
# [35] = target: Fuc(a1-2)[GalNAc(a1-3)]Gal(b1-4)Glc
# Method in brief: as §1
# [36] = target: Fuc(a1-2)[GalNAc(a1-3)]Gal(b1-4)GlcNAc
# Method in brief: as §1
# [37] = target: Fuc(a1-2)[GalNAc(a1-3)]Gal(b1-4)GlcNAc(b1-2)Man
# Method in brief: as §1
# [38] = target: Fuc(a1-2)[GalNAc(a1-3)]Gal(b1-4)GlcNAc(b1-2)Man(a1-3)[Fuc(a1-2)[GalNAc(a1-3)]Gal(b1-4)GlcNAc(b1-2)Man(a1-6)]Man(b1-4)GlcNAc(b1-4)GlcNAc
# Method in brief: as §1
# [39] = target: Fuc(a1-2)[GalNAc(a1-3)]Gal(b1-4)GlcNAc(b1-2)Man(a1-3)[Fuc(a1-2)[GalNAc(a1-3)]Gal(b1-4)GlcNAc(b1-2)Man(a1-6)]Man(b1-4)GlcNAc(b1-4)[Fuc(a1-6)]GlcNAc
# Method in brief: as §1
# [40] = target: Fuc(a1-2)[GalNAc(a1-3)]Gal(b1-4)GlcNAc(b1-3)Gal(b1-4)GlcNAc
# Method in brief: as §1
# [41] = target: Fuc(a1-2)[GalNAc(a1-3)]Gal(b1-4)GlcNAc(b1-3)Gal(b1-4)GlcNAc(b1-3)Gal(b1-4)GlcNAc
# Method in brief: as §1
# [42] = target: Fuc(a1-2)[GalNAc(a1-3)]Gal(b1-4)GlcNAc(b1-3)GalNAc
# Method in brief: as §1
# [43] = target: Fuc(a1-2)[GalNAc(a1-3)]Gal(b1-4)GlcNAc(b1-3)[Fuc(a1-2)[GalNAc(a1-3)]Gal(b1-4)GlcNAc(b1-6)]GalNAc
# Method in brief: as §1
binder,measurement,setting,value
B1,glycan array binding signal (z-score),[1],1.41
same,glycan array binding signal (z-score),[2],0.56
same,glycan array binding signal (z-score),[3],-0.517
same,glycan array binding signal (z-score),[4],-0.605
same,glycan array binding signal (z-score),[5],-0.099
same,glycan array binding signal (z-score),Fuc(a1-2)Gal6S(b1-4)Glc,0.6
same,glycan array binding signal (z-score),[6],0.252
same,glycan array binding signal (z-score),[7],-0.204
same,glycan array binding signal (z-score),Fuc(a1-2)[Gal(a1-3)]Gal,-0.228
same,glycan array binding signal (z-score),[8],0.232
same,glycan array binding signal (z-score),[9],-0.189
same,glycan array binding signal (z-score),[10],-0.078
same,glycan array binding signal (z-score),[11],0.215
same,glycan array binding signal (z-score),[12],-0.239
same,glycan array binding signal (z-score),[13],2.18
same,glycan array binding signal (z-score),[14],-0.595
same,glycan array binding signal (z-score),[15],-0.433
same,glycan array binding signal (z-score),[16],0.062
same,glycan array binding signal (z-score),[17],-0.048
same,glycan array binding signal (z-score),[18],0.13
same,glycan array binding signal (z-score),[19],3.01
same,glycan array binding signal (z-score),[20],0.111
same,glycan array binding signal (z-score),[21],0.353
same,glycan array binding signal (z-score),[22],-0.155
same,glycan array binding signal (z-score),[23],-0.047
same,glycan array binding signal (z-score),[24],0.247
same,glycan array binding signal (z-score),[25],1.15
same,glycan array binding signal (z-score),[26],-0.409
same,glycan array binding signal (z-score),[27],-0.514
same,glycan array binding signal (z-score),[28],0.065
same,glycan array binding signal (z-score),[29],-0.387
same,glycan array binding signal (z-score),[30],0.004
same,glycan array binding signal (z-score),[31],-0.156
same,glycan array binding signal (z-score),[32],0.532
same,glycan array binding signal (z-score),[33],0.66
same,glycan array binding signal (z-score),[34],-0.467
same,glycan array binding signal (z-score),[35],0.017
same,glycan array binding signal (z-score),[36],-0.195
same,glycan array binding signal (z-score),[37],-0.124
same,glycan array binding signal (z-score),[38],0.189
same,glycan array binding signal (z-score),[39],0.142
same,glycan array binding signal (z-score),[40],-0.404
same,glycan array binding signal (z-score),[41],-0.255
same,glycan array binding signal (z-score),[42],0.751
same,glycan array binding signal (z-score),[43],0.029

# An excerpt of these results, as tab-separated lines.
binder	measurement	setting	value
B1	glycan array binding signal (z-score)	[11]	0.215
same	glycan array binding signal (z-score)	[12]	-0.239
